The text below walks through data of publication PMC7819943, “Rice protein-binding microarrays: a tool to detect cis-acting elements near promoter regions in rice”.

Chains of the proteins cited; added tags and fusions are not shown.
UniProt Q0JBA9, entry or part of it: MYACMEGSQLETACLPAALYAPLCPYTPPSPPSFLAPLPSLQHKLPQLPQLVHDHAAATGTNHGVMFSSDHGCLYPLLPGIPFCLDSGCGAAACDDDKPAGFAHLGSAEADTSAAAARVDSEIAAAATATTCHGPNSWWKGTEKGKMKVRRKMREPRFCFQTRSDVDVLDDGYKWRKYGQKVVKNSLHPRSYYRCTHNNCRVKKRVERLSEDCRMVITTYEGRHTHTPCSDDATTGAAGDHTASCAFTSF

The other results are listed elsewhere or left out.

The target of the assay is OsWRKY34 (Oryza sativa, UniProt Q0JBA9 1-250). The assay is described as follows: protein-binding microarray (RPBM); PBS, 2% BSA, 51.3 ng/ul salmon testes DNA, 50 uM zinc acetate, 200 nM TF, 25 C, 1 h; high values mean tight binding. The settings on record: protein: recombinant; tags: N-terminal polyhistidine and DsRed monomer fusion (pET32a); label: CyDye5-dUTP incorporated in the synthesized complementary strand; 3' TTTTT single-stranded linker to array surface; dsDNA, one strand shown. A digest of the protocol: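 The binding signal is fluorescence intensity per array feature (arbitrary units). Readings came from an Axon 4000B scanner after a washed, 2% BSA-blocked, double-stranded custom Agilent array had been incubated for 1 h at 25 °C with 200 nM protein and 50 µM zinc acetate. The protein was a Ni–NTA-purified transcription factor fused N-terminally to polyhistidine and DsRed, expressed in E. coli BL21-CodonPlus.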
Consider “TTGACTATAACTTGTAGTGTACGCGCCGGCTCATGCATCTCGGAGTCACCTAGTGCAG”, for which the binding signal was 10000 fluorescence intensity (a.u.).
The result for “TATGTTTATTTAATTGTTCCATAGAGTTGACTGAAATTGCCGGAGTCACCTAGTGCAG” reads 9680 fluorescence intensity (a.u.).
With “GAGGAGGCGGTGGGAGGGATCGATGGCGTCGCGCGTGCTCCGGAGTCACCTAGTGCAG” the figure was 9630 fluorescence intensity (a.u.).
With “GAGTTGGTTATAAGGTGAGTATCTCGCTAAGTCAGTTGTTCGGAGTCACCTAGTGCAG” the figure was 9210 fluorescence intensity (a.u.).
For the sequence “TGCCTCGTTTTTCTCTATAGACTATCTCCTGGTTAGTAGACGGAGTCACCTAGTGCAG”, the binding signal was 8150 fluorescence intensity (a.u.).
For the sequence “TATTTTAATGTATGACGCCGTTGACTTTTTAATCAATGTTCGGAGTCACCTAGTGCAG”, the binding signal was 29100 fluorescence intensity (a.u.).
With “CTTGCCATGGTGTTGATTTGGGGCGGGAAGAAGCATCGGGCGGAGTCACCTAGTGCAG” the figure was 16800 fluorescence intensity (a.u.); with “GAACAACAATACAATACATACACGCATACATAGGTAGATCCGGAGTCACCTAGTGCAG”, 8280 fluorescence intensity (a.u.).
The result for “ACACATACACACACATATCTCATCTTGTTGTTTCTGAGCTCGGAGTCACCTAGTGCAG” reads 10600 fluorescence intensity (a.u.); that for “CTTCGTTGTTAACTTTCTCAATATTCGTGCCGTGTATTATCGGAGTCACCTAGTGCAG”, 8120 fluorescence intensity (a.u.); that for “ACCCTCTTGTGCCTCTCATTGTTTGGTCATTGACTTCAGCCGGAGTCACCTAGTGCAG”, 11200 fluorescence intensity (a.u.).
For “AAAGAACTTACTTCTATTCTATTTGCTAAGTTTATTTTTCCGGAGTCACCTAGTGCAG”, the binding signal is 8090 fluorescence intensity (a.u.).
On to “ACGGAGCCACCTATCCGCGCCGTCAGATCTCTCCATTTCTCGGAGTCACCTAGTGCAG”, for which the binding signal is 11200 fluorescence intensity (a.u.).
The result for “GGCCACGCTCCGCCTCGCGGTCCTACTGCGCCTTCGCCTCCGGAGTCACCTAGTGCAG” reads 10500 fluorescence intensity (a.u.); that for “AGAATCTGGTACCACCCTCATGTTTGATAATTGACTTTTCCGGAGTCACCTAGTGCAG”, 8250 fluorescence intensity (a.u.).
With “GTTCATCGCATCCGCCCCAGCCCCGCGTCCGTGCCGTGCACGGAGTCACCTAGTGCAG” the figure was 10100 fluorescence intensity (a.u.).
With “TGGAGAAGGTGGTTATGGTGTGGTTTTCAAAGGAAAGCTACGGAGTCACCTAGTGCAG”, the binding signal is 8030 fluorescence intensity (a.u.).
The result for “CATTGGGTTGGGAATGATCTTTGTACTCCCTCTGTCCCATCGGAGTCACCTAGTGCAG” reads 11400 fluorescence intensity (a.u.); that for “CCCGCGCTCCAATTCCGTCCTTCATCCGCTCTTTGTTTTTCGGAGTCACCTAGTGCAG”, 14200 fluorescence intensity (a.u.); that for “CTGGCTCGCTCTCTCTCTCTCTCTCGTGGTGTGGTGTGGACGGAGTCACCTAGTGCAG”, 9310 fluorescence intensity (a.u.).
On to “ATGACTTAAAACCTTCCGGATCTCATAGCTGCTCCAAATACGGAGTCACCTAGTGCAG”, for which the binding signal is 8350 fluorescence intensity (a.u.).
As for “CGTCGTCTTCCTGCCGCCGCCTTCACACCGCCGCCGCGACCGGAGTCACCTAGTGCAG”, the binding signal is 11100 fluorescence intensity (a.u.).
On to “TTTGTTGGTTGGTTTGACCCTTCCTAATCCTACCTTTGGTCGGAGTCACCTAGTGCAG”, for which the binding signal is 8160 fluorescence intensity (a.u.).
Regarding “ACACCAAAATTTCCGTCCGCATGAGCTGCACCTGCACCAACGGAGTCACCTAGTGCAG”, the binding signal was 10300 fluorescence intensity (a.u.).
With “GGCCCGGTTCTTTTCTCCTTATGGCACGAACACATTTTTTCGGAGTCACCTAGTGCAG” the figure was 9840 fluorescence intensity (a.u.); with “ACTCCCTGATCTTTAGCTAAACCTTTCATTCTCAGGTTATCGGAGTCACCTAGTGCAG”, 10700 fluorescence intensity (a.u.); with “AAGCCCACAGAACCACGCGCTCGTTAGCCTCCTCGTTCCGCGGAGTCACCTAGTGCAG”, 8230 fluorescence intensity (a.u.).
With “GGGGCTTGGAGTGACGTTTGCTACTACTGACGGATTTTCACGGAGTCACCTAGTGCAG” the figure was 10400 fluorescence intensity (a.u.); with “AATTCGCCGTCGTCGTCTTCTTCTTCCACCTCGGGAAGTCCGGAGTCACCTAGTGCAG”, 9600 fluorescence intensity (a.u.).
For the sequence “AAAAATGCTTCTCCGGTCACCATCCACCGCCACCGCCACCCGGAGTCACCTAGTGCAG”, the binding signal was 8320 fluorescence intensity (a.u.).
The result for “CCCTTTCTTTCATGTTGACCTCGTCACCCAACAACAACAACGGAGTCACCTAGTGCAG” reads 13100 fluorescence intensity (a.u.); that for “TTCTCGAGTTCCGGTCCGCTTTGATTTTATACTTTTGGGGCGGAGTCACCTAGTGCAG”, 10100 fluorescence intensity (a.u.); that for “ATTTTATTTTTAGAATGAGGGGTTGCCATATTTGCTTGTTCGGAGTCACCTAGTGCAG”, 8670 fluorescence intensity (a.u.).
On to “ACGGTCACATGGCTATACAATTGACGGTATGATTTTTTTTCGGAGTCACCTAGTGCAG”, for which the binding signal was 9060 fluorescence intensity (a.u.).
For the sequence “TGTCCAGTCTCCGCTCGCTATATCCGCTCCCGCGCGACTCCGGAGTCACCTAGTGCAG”, the binding signal was 14600 fluorescence intensity (a.u.).
For the sequence “CCTGCAGCCGCCGCCGTCAGGTCTCGCCTCCGCCGCACTCCGGAGTCACCTAGTGCAG”, the binding signal was 8820 fluorescence intensity (a.u.).
The result for “CTCTTTTTTTTCTCCGTAATGTTTAATTCAATACTATAATCGGAGTCACCTAGTGCAG” reads 8940 fluorescence intensity (a.u.).
On to “ATCCGTTGACTTCTCCCTATCTTCTCTCTTTCTTAATTTCCGGAGTCACCTAGTGCAG”, for which the binding signal was 14900 fluorescence intensity (a.u.).
On to “ACTTCGCTGTTGTGCTTGTCGGGTTTGTGTTCGAAGCCTTCGGAGTCACCTAGTGCAG”, for which the binding signal was 10100 fluorescence intensity (a.u.).
With “TTCGGTGTACTTTTTCCATTCTAATCAGGTTTCGTCGAGCCGGAGTCACCTAGTGCAG” the figure was 8950 fluorescence intensity (a.u.).
In the case of “CCGGTGGGGTGGGGAATTCGGCGGAGGAAGACGACGACGACGGAGTCACCTAGTGCAG”, the binding signal was 9250 fluorescence intensity (a.u.).
As to “GCTCATTTTTTTTCCCACATATATATGTATACTTTGATATCGGAGTCACCTAGTGCAG”, the binding signal is 9590 fluorescence intensity (a.u.).
For “GCCGGATCCAGATCTCCACCGCCTCGCCTCGCCGCGCCGCCGGAGTCACCTAGTGCAG”, the binding signal was 10400 fluorescence intensity (a.u.).
With “TTTGATGTTAATTGATGCTCTATGTTCTGTCAAGTCATTGCGGAGTCACCTAGTGCAG” the figure was 8350 fluorescence intensity (a.u.); with “GCTCTGACTTGTGCTTATAACCATATACACTGGCATTCACCGGAGTCACCTAGTGCAG”, 8200 fluorescence intensity (a.u.).
For the sequence “ATGTACTAATCTCCTTTTCTGTGTTAGACGTGCCAATGTTCGGAGTCACCTAGTGCAG”, the binding signal is 8670 fluorescence intensity (a.u.).
With “CCTCTGTTTCGCAACCATACTTTGAATAACGTGCCATATACGGAGTCACCTAGTGCAG” the figure was 10300 fluorescence intensity (a.u.); with “CTACAGATCTGTAGCCCACTGCTCTTCTCTCTCTTCCTTTCGGAGTCACCTAGTGCAG”, 8080 fluorescence intensity (a.u.); with “TGGGGCAAAATTTGTGTTAATTAGCTCAGGCTGCATTCACCGGAGTCACCTAGTGCAG”, 8380 fluorescence intensity (a.u.).
The result for “TTCCGTCTAAGGCATAGTTCATATTCTTATTGCCCACATTCGGAGTCACCTAGTGCAG” reads 8710 fluorescence intensity (a.u.); that for “TTTCGACCACCTTCATGGTCCATCCACATCATCCTTCTCACGGAGTCACCTAGTGCAG”, 8110 fluorescence intensity (a.u.); that for “AACCTTTTTTCTATAGTTTGTTCATGCCGTTATAATATAGCGGAGTCACCTAGTGCAG”, 9120 fluorescence intensity (a.u.).
Consider “ACTTGCTGCCTGTTTTTCTTGTGCGTATGCAGTATACTAACGGAGTCACCTAGTGCAG”, for which the binding signal is 10900 fluorescence intensity (a.u.).
With “TTGATCTTCTTGTAAGCAACGCCATCCATTCACTAATCCACGGAGTCACCTAGTGCAG” the figure was 8640 fluorescence intensity (a.u.).
